# Values of other authors, collected in patent publication EP3290412A1, “HIV-1 NUCLEOCAPSID INHIBITORS” (Università degli Studi di Siena, priority 2016, dated 2018).
# For at least one compound, name, drawing or mass did not settle the structure. Marks after values point to notes of the source that are not given here.
# Tests used:
# Settings in all cases: cited from earlier work
# [1] = test system: NIH Catalogue Number: 7401
# [2] = test system: NIH Catalogue Number: 7400
# [3] = test system: NIH Catalogue Number: 12229
# [4] = test system: NIH Catalogue Number: 12231
Structure (SMILES),Level of resistance ([1]; NRTI resistant strain 7401),"Fold change ([1]; strain 7401, resistant virus IC50 to wild-type reference virus IC50 ratio, cut-off in brackets)",Level of resistance ([2]; NRTI resistant strain 7400),"Fold change ([2]; strain 7400, resistant virus IC50 to wild-type reference virus IC50 ratio, cut-off in brackets)",Level of resistance ([3]; NNRTI resistant strain 12229),"Fold change ([3]; strain 12229, resistant virus IC50 to wild-type reference virus IC50 ratio, cut-off in brackets)",Level of resistance ([4]; NNRTI resistant strain 12231),"Fold change ([4]; strain 12231, resistant virus IC50 to wild-type reference virus IC50 ratio, cut-off in brackets)"
Nc1ccn([C@@H]2CS[C@H](CO)O2)c(=O)n1 [Lamivudine],High resistance,>200 (3.5^c),High resistance,>200 (3.5^c),,,,
Cc1cc(/C=C/C#N)cc(C)c1Nc1ccnc(Nc2ccc(C#N)cc2)n1 [Rilpivirine],,,,,High resistance,6.3 (2^b),High resistance,2.3 (2^b)
